Reference: PubChem BioAssay AID1671195 (Yale University, 2021)

- Screen: 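Genes whose knockdown alters LDL uptake in liver cancer cells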 (primary screen)
- System: human Huh7 hepatoma cells
- Knock-down reagent: siRNA pool against human genes, 18 nM
- Duration: about 2 to 2.5 days of knockdown, then 8 h LDL uptake
- Conditions: DiI-labelled LDL at 30 µg/ml for 8 h, in lipoprotein-deficient serum medium
- Measurement: 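Fluorescent LDL signal imaged in cells, scaled to the plate median, robust z-score for each replicate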
- Scale: robust z-score: higher = more LDL uptake after knockdown
- Hit rule: 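Active when two or more replicates show a robust z-score above 2 or below -2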
This is one part, drawn at random, of about 22,000 deposited reagents. About 1,510 of them (6.9%) count as active. 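Active includes knockdowns raising or lowering LDL uptake; positive z-scores mean more uptake, negative mean less.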 A number with no mark means an inactive call. No sequences are given here.

The opening 7 records, to show the layout:
no.	gene	robust z-score, replicate 1	robust z-score, replicate 2	robust z-score, replicate 3
1	INE1 (inactivation escape 1)	-0.497	-0.472	0.349
2	ZC3H12C (zinc finger CCCH-type containing 12C)	3.91 (active)	2.68	3.19
3	NR1H4 (nuclear receptor subfamily 1 group H member 4)	-0.505	-1.35	-0.453
4	SMIM10L2A (small integral membrane protein 10 like 2A)	0.31	0.378	0.0553
5	EIF2B5 (eukaryotic translation initiation factor 2B subunit epsilon)	0.823	-0.0111	0.0954
6	ARHGAP10 (Rho GTPase activating protein 10)	-2.17 (active)	-2.11	-1.99
7	LOC400712 (retired record)	0.519	0.232	1.02

Results, from the start:
no.	gene	robust z-score, replicate 1	robust z-score, replicate 2	robust z-score, replicate 3
1	INE1 (inactivation escape 1)	-0.497	-0.472	0.349
2	ZC3H12C (zinc finger CCCH-type containing 12C)	3.91 (active)	2.68	3.19
3	NR1H4 (nuclear receptor subfamily 1 group H member 4)	-0.505	-1.35	-0.453
4	SMIM10L2A (small integral membrane protein 10 like 2A)	0.31	0.378	0.0553
5	EIF2B5 (eukaryotic translation initiation factor 2B subunit epsilon)	0.823	-0.0111	0.0954
6	ARHGAP10 (Rho GTPase activating protein 10)	-2.17 (active)	-2.11	-1.99
7	LOC400712 (retired record)	0.519	0.232	1.02
8	CFAP299 (cilia and flagella associated protein 299)	1.12	0.95	0.837
9	CASP7 (caspase 7)	-1.7	-1.14	-1.59
10	SELENOS (selenoprotein S)	0.434	-1.94	0.218
11	PCYOX1 (prenylcysteine oxidase 1)	1.51	1.46	-1.5
12	ABTB3 (ankyrin repeat and BTB domain containing 3)	-0.00629	-0.542	-0.904
13	LOC389767 (retired record)	-0.00634	0.0265	-0.0874
14	DGLUCY (D-glutamate cyclase)	0.0533	0.412	-0.278
15	CD3E (CD3 epsilon subunit of T-cell receptor complex)	0.0758	-0.652	0.466
16	GOLGA6L2 (golgin A6 family like 2)	0.113	-0.447	0.0109
17	LOC442084 (retired record)	-1.59	-1.56	-1.35
18	CAPN3 (calpain 3)	-2.71 (active)	-2.23	-2.23
19	GATA5 (GATA binding protein 5)	-0.133	-0.0947	-0.165
20	LRRC14B (leucine rich repeat containing 14B)	0.701	0.776	1.35
21	TEDC2 (tubulin epsilon and delta complex 2)	-1.3	-1.7	-1.56
22	AMACR (alpha-methylacyl-CoA racemase)	0.488	1.28	0.49
23	NECAB3 (N-terminal EF-hand calcium binding protein 3)	0.713	1.17	0.653
24	TNFAIP8 (TNF alpha induced protein 8)	0.83	0.173	5.78
25	ZNF92 (zinc finger protein 92)	-1.49	-1.23	-0.726
26	SH2D3C (SH2 domain containing 3C)	1.2	-0.659	-0.207
27	ZIC4 (Zic family zinc finger 4)	-0.547	-0.826	-0.196
28	SHBG (sex hormone binding globulin)	-0.595	0.295	0.519
29	ATP2B1 (ATPase plasma membrane Ca2+ transporting 1)	0.367	-0.0506	0.197
30	SP4 (Sp4 transcription factor)	-0.112	0.195	0.0825
31	COG7 (component of oligomeric golgi complex 7)	-1.74	-0.918	-0.805
32	SOX3 (SRY-box transcription factor 3)	0.0358	0.797	-0.215
33	GPR176 (G protein-coupled receptor 176)	1.03	0.125	0.338
34	FRA10AC1 (FRA10A associated CGG repeat 1)	-0.8	-0.862	-1.31
35	LINC00927 (long independently transcribed non-coding RNA 927)	-1.53	-1.52	-1.64
36	MYH11 (myosin heavy chain 11)	0.461	-0.353	-0.0195
37	KLHL22 (kelch like family member 22)	0.375	-0.457	0.667
38	SYNJ2 (synaptojanin 2)	1.51	0.882	0.861
39	REXO4 (RNA exonuclease 4)	1.62	1.76	1.48
40	GAR1 (GAR1 ribonucleoprotein)	-0.425	-0.484	0.934
41	PANK3 (pantothenate kinase 3)	0.0769	0.0471	0.62
42	LOC389936 (retired record)	-0.779	-0.45	-0.536
43	POLR2E (RNA polymerase II, I and III subunit E)	-0.966	-0.726	-0.554
44	FOXN2 (forkhead box N2)	2.84 (active)	2.73	2.98
45	MATR3 (matrin 3)	-0.0868	-0.542	-0.865
46	SC5D (sterol-C5-desaturase)	4.13 (active)	1.74	3.72
47	FLT1P1 (FLT1 pseudogene 1)	-0.519	-1.47	-1.6
48	ARID1B (AT-rich interaction domain 1B)	-0.332	0.829	0.278
49	LOC400870 (retired record)	-0.698	-0.653	-0.608
50	GLRA1 (glycine receptor alpha 1)	0.432	1.26	0.626
51	LOC728073	-0.844	-1.04	-0.91
52	ZNF510 (zinc finger protein 510)	-0.647	-0.799	-0.76
53	TRIM71 (tripartite motif containing 71)	-0.109	2.2	1.53
54	BATF2 (basic leucine zipper ATF-like transcription factor 2)	-1.3	-0.542	-1.26
55	DNAJC22 (DnaJ heat shock protein family (Hsp40) member C22)	-0.566	0.494	0.316
56	LCN15 (lipocalin 15)	-1.44	-1.04	-1.32
57	TMEFF2	-1.43	-0.642	-1.79
58	FAM181A (family with sequence similarity 181 member A)	-0.333	0.118	-0.0685
59	RHO (rhodopsin)	-1.17	-0.568	-1.94
60	PMF1 (polyamine modulated factor 1)	-1.23	-2.07	-1.07
61	ZDHHC24 (zDHHC palmitoyltransferase 24)	2.13 (active)	2.04	2.67
62	CD69 (CD69 molecule)	0.0326	0.361	-0.183
63	PSMA3 (proteasome 20S subunit alpha 3)	-0.936	-0.623	-0.659
64	REX1BD (required for excision 1-B domain containing)	-0.537	-1.57	0.824
65	MRPS17 (mitochondrial ribosomal protein S17)	0.903	1.38	1.41
66	ERBB4 (erb-b2 receptor tyrosine kinase 4)	0.0465	-0.538	-0.767
67	LOC442102 (retired record)	-1.86	-1.51	-1.66
68	FAM151A (family with sequence similarity 151 member A)	0.326	0.0886	0.477
